Results on 54 sequences are retold here after PMC7819943, “Rice protein-binding microarrays: a tool to detect cis-acting elements near promoter regions in rice”.

The other results are listed elsewhere or left out.

In the test the target is T1, OsSMF1 (Oryza sativa, UniProt Q6ZLB0 1-436).
T1 sequence: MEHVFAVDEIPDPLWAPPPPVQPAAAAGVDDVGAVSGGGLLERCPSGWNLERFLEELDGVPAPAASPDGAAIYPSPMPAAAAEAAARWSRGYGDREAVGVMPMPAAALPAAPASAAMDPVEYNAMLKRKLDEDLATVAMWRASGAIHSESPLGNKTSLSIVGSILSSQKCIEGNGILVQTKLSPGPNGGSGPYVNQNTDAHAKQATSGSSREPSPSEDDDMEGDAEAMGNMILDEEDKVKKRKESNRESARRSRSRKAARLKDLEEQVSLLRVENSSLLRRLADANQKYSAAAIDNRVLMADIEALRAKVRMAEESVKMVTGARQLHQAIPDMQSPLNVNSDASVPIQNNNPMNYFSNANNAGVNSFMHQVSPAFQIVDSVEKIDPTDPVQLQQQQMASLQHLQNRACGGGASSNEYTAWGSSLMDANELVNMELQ
Nature of the test: protein-binding microarray (RPBM); PBS, 2% BSA, 51.3 ng/ul salmon testes DNA, 50 uM zinc acetate, 200 nM TF, 25 C, 1 h; high values mean tight binding. The note with it: protein: recombinant; tags: N-terminal polyhistidine and DsRed monomer fusion (pET32a); chain copies: 2; label: CyDye5-dUTP incorporated in the synthesized complementary strand; 3' TTTTT single-stranded linker to array surface; dsDNA, one strand shown. In short, it runs like this:
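Ni–NTA purification followed expression in E. coli BL21-CodonPlus of transcription factors fused N-terminally to a polyhistidine tag and DsRed. At 200 nM in PBS with 2% BSA, salmon testes DNA and 50 µM zinc acetate, the protein was incubated for 1 h at 25 °C with a custom Agilent array that had been primer-extended with Cy5-dUTP and blocked with 2% BSA. After washing, the array was read on an Axon 4000B scanner. The binding signal is per-feature fluorescence intensity in arbitrary units.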
For the sequence “AATCACTGGTATTACGGCTACCTCATGTTTTGAATCAGCTCGGAGTCACCTAGTGCAG”, the binding signal was 3200 fluorescence intensity (a.u.). Under “TGACATGTAGCATTTGTACAGGTGGCATGCTCTGTGACTTCGGAGTCACCTAGTGCAG” stands 6800 fluorescence intensity (a.u.); under “GCGGCTTCTCGCCGGCGGCGACCACCACCCGTCACCCACCCGGAGTCACCTAGTGCAG”, 3380 fluorescence intensity (a.u.). Take “TCTCTACGGGTAGCTGTCATCACTTGCACGGTGGTGTCCCCGGAGTCACCTAGTGCAG”: the binding signal was 3440 fluorescence intensity (a.u.).

Take “ATAACAACGAATTGAATGACGAGTAATCGAACGTGGCATTCGGAGTCACCTAGTGCAG”: the binding signal is 5460 fluorescence intensity (a.u.). Take “CGGTTCCGCAGCTCCAAAACGCGGGACCGTCGCGGTCCCGCGGAGTCACCTAGTGCAG”: the binding signal is 3770 fluorescence intensity (a.u.). For the sequence “TATGTAACAGCTGAGTCAGCATCCATATGTCAGGATGCCGCGGAGTCACCTAGTGCAG”, the binding signal was 14900 fluorescence intensity (a.u.). On to “AATGTAGACATATATGTGTATAGATTCATTAATATATATACGGAGTCACCTAGTGCAG”, for which the binding signal is 17400 fluorescence intensity (a.u.). Under “CAAGACGGATTTATTAAGCCTAATTAATCTATCATTAGCGCGGAGTCACCTAGTGCAG” stands 4110 fluorescence intensity (a.u.).

For the sequence “TTTCTCGCCGGCCGTCGTGTTGCGTCGCCAGTCGATCGCCCGGAGTCACCTAGTGCAG”, the binding signal was 3570 fluorescence intensity (a.u.). “TTTGATGTGACATGATGTAAAGTTTTGGGATGGGATCTAACGGAGTCACCTAGTGCAG”: the binding signal was 29100 fluorescence intensity (a.u.). As to “TCACTCGCCGGTGCGATGACACACAGCCACAGAGATGGAACGGAGTCACCTAGTGCAG”, the binding signal is 4490 fluorescence intensity (a.u.). Regarding “GTCTCCCGGTGAGGAGCCCCACGCTCCGTCAGACTCATACCGGAGTCACCTAGTGCAG”, the binding signal was 4410 fluorescence intensity (a.u.).

As for “GTCAACAAGTATCTTGATTCTTGCCACGTTGTTTAGCATGCGGAGTCACCTAGTGCAG”, the binding signal was 3250 fluorescence intensity (a.u.).

As to “CCACGCCACTCACCCAACCCCGCCGCCACCTCGGATCCGCCGGAGTCACCTAGTGCAG”, the binding signal is 6620 fluorescence intensity (a.u.).

“GAGTGAGATAGGAATCGAGAGAGAGATGACATGGACCTTGCGGAGTCACCTAGTGCAG”: the binding signal is 7190 fluorescence intensity (a.u.). As to “GGAGGAGGAGGAGGAGGGAGATGGTGGCGAGCTGACTTGGCGGAGTCACCTAGTGCAG”, the binding signal was 4090 fluorescence intensity (a.u.). Turning to “CACCTGGATCAGTGATGCCCTGAAGGCCGCCTCTTGCTTGCGGAGTCACCTAGTGCAG”, the binding signal was 3540 fluorescence intensity (a.u.). In the case of “TCCACCCCACGTCCTCCTCCTCCCCAGCAGTCCCACCCGCCGGAGTCACCTAGTGCAG”, the binding signal was 3570 fluorescence intensity (a.u.). As to “ACCGCCGCCGCCGTCGCCGGCCATCGTCACGGCGCCGCCCCGGAGTCACCTAGTGCAG”, the binding signal is 3190 fluorescence intensity (a.u.).

As to “TGAGTCGTGTCCCATCCCACCTGCGCACCCAGCCCGGTAACGGAGTCACCTAGTGCAG”, the binding signal was 8140 fluorescence intensity (a.u.). “CGCCAGCGGCCGGGAAACCCGCCGCGTGGACACAACGTCGCGGAGTCACCTAGTGCAG”: the binding signal was 4040 fluorescence intensity (a.u.). Regarding “GACGGCCTTGCACCTTATCACCACGTGTAGATACACCAAGCGGAGTCACCTAGTGCAG”, the binding signal is 4380 fluorescence intensity (a.u.). Under “CTTTCACTACCTAGGACCAAATTGATGACTGAATTTCTCGCGGAGTCACCTAGTGCAG” stands 3370 fluorescence intensity (a.u.); under “TGCGTTTCCCGTCAGCCCTGTCACGCCGCCGCCGGTCGCCCGGAGTCACCTAGTGCAG”, 5130 fluorescence intensity (a.u.); under “GGGCCAAATTTTATCGAGAAGATTAGACACGAGTATGGGCCGGAGTCACCTAGTGCAG”, 47600 fluorescence intensity (a.u.). Take “TATTTCACGCCAATCATTAATATATACCGTTGGGAGCACTCGGAGTCACCTAGTGCAG”: the binding signal is 12600 fluorescence intensity (a.u.). In the case of “ATGGGAAGAAGGGAGTACGGTACACGCAAGCAATGACACACGGAGTCACCTAGTGCAG”, the binding signal is 6800 fluorescence intensity (a.u.). Consider “ATATGGCATACATGAGAATTTAGAGAATTTACCATCAAATCGGAGTCACCTAGTGCAG”, for which the binding signal was 45500 fluorescence intensity (a.u.). Take “CCTCATCTTGGCCACGCGCACCCCGGCCACGCGTACATGGCGGAGTCACCTAGTGCAG”: the binding signal was 5320 fluorescence intensity (a.u.). For the sequence “GATTCATTTAACAATTATATGAATGTGGGAAATGCTAGAACGGAGTCACCTAGTGCAG”, the binding signal was 44400 fluorescence intensity (a.u.). Take “GCTTGTCGTGGAGGAGGTCGACGACGTGGTAGTCCGAGAGCGGAGTCACCTAGTGCAG”: the binding signal is 4000 fluorescence intensity (a.u.). Turning to “AGGCTTTCTATTACGCCCACTGTATGACATGTTAGCTACTCGGAGTCACCTAGTGCAG”, the binding signal was 3810 fluorescence intensity (a.u.).

Regarding “CTGGCGCTGAACTTAGACATCTCAGCGCCACGTCAACTGACGGAGTCACCTAGTGCAG”, the binding signal is 18700 fluorescence intensity (a.u.). Turning to “TACAAGGACGACTCCACATCATCATGTAGGTATTGTAGGTCGGAGTCACCTAGTGCAG”, the binding signal is 8940 fluorescence intensity (a.u.). “GGCGAAAGGTCTATATATATGCTGCCAACCATGTTCTTATCGGAGTCACCTAGTGCAG”: the binding signal is 3980 fluorescence intensity (a.u.). With “CTGTGATGGCTTCTCCGCTATTGGTGCGTTTGCGTGGGTTCGGAGTCACCTAGTGCAG”, the binding signal is 3250 fluorescence intensity (a.u.). For the sequence “AACATCACCGCAGCGCCATGCCACCACACGTCCGGAAAGTCGGAGTCACCTAGTGCAG”, the binding signal is 4460 fluorescence intensity (a.u.). With “CTTAGGGGACGATTTTGTAACTCGATGACAAGTTGAGGGACGGAGTCACCTAGTGCAG”, the binding signal is 3580 fluorescence intensity (a.u.).

“GAGGTCGATGTAGCCCTTGTCGTGGTCGACGCGGAGGACGCGGAGTCACCTAGTGCAG”: the binding signal is 5090 fluorescence intensity (a.u.).

For “GCCAGCTTCCCTATAGTAAGCGGTGTATTTGTATGGTTTTCGGAGTCACCTAGTGCAG”, the binding signal is 3980 fluorescence intensity (a.u.). As for “GTCATAGTGCCCGTTGCCTGGTCATGGCTAGCACGACATGCGGAGTCACCTAGTGCAG”, the binding signal was 4940 fluorescence intensity (a.u.). Under “CTTAAAAGACAAATAGATTCTTCTCACTTAAAATGACGCGCGGAGTCACCTAGTGCAG” stands 5230 fluorescence intensity (a.u.); under “TCTTTGATTACAATGGAGTCCACCAAGGTCTCGGCGATGCCGGAGTCACCTAGTGCAG”, 18800 fluorescence intensity (a.u.). As for “CGGACCGCTCCAGCGTGGGTCCCACTGTCAGTGACATGGACGGAGTCACCTAGTGCAG”, the binding signal was 3430 fluorescence intensity (a.u.). “CGTAGTGTTACAGTGGTATCAGAGACAGGTTGTGGGTGTCCGGAGTCACCTAGTGCAG”: the binding signal is 4130 fluorescence intensity (a.u.).

As for “GCCGTAAAAGCTTCGAGCGAAACCCCACGCACGTACGCAGCGGAGTCACCTAGTGCAG”, the binding signal was 3470 fluorescence intensity (a.u.). As to “GGAGAGCAATCAAGCGAAATTGACACGTGTCACGGCAGTGCGGAGTCACCTAGTGCAG”, the binding signal was 15400 fluorescence intensity (a.u.). For “CTCCCTCCTCCTCTCCTCCTCGCCTCCCTCCCGCGGTGGCCGGAGTCACCTAGTGCAG”, the binding signal is 4340 fluorescence intensity (a.u.). On to “TATGCTCGTCGTCATCAGTCGTAGTCTAAGTACACATCACCGGAGTCACCTAGTGCAG”, for which the binding signal is 8900 fluorescence intensity (a.u.). “TCTTTGACGTTTGAGCAAACTACCTATAATTAAAATAGGTCGGAGTCACCTAGTGCAG”: the binding signal is 28100 fluorescence intensity (a.u.).

For “CATGTGGGTCTCACGCTGACTCGTGTGCCACGTAGGACAACGGAGTCACCTAGTGCAG”, the binding signal is 17200 fluorescence intensity (a.u.). For “ACACATGCCATTTGCTCCATTCCACCGCCTCCAGGTACGGCGGAGTCACCTAGTGCAG” the value was 3180 fluorescence intensity (a.u.); for “AGCGTGCACACACGATGGATGACACGACGCACGCCGGCACCGGAGTCACCTAGTGCAG”, 3830 fluorescence intensity (a.u.).
